Data taken from article PMC8408166.

By UniProt entry, the sequences of proteins in these tests, tags left out.
UniProt O14744: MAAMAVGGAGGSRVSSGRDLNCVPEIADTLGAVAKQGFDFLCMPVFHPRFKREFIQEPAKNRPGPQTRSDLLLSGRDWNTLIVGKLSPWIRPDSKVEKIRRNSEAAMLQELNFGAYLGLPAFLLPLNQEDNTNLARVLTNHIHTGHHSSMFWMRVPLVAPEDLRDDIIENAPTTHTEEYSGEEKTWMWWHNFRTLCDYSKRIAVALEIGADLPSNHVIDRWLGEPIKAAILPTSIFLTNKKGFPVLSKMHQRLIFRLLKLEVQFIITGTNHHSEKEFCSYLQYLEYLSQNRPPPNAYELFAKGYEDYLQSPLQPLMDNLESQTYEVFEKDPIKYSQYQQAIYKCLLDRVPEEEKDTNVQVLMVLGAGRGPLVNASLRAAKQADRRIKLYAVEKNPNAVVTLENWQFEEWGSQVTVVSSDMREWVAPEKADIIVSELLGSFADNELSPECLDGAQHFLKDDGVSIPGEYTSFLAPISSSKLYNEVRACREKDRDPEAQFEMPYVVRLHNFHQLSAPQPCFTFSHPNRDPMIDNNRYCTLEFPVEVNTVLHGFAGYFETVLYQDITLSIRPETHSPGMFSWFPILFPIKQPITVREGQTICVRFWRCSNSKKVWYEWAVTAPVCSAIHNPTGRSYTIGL
UniProt Q16531: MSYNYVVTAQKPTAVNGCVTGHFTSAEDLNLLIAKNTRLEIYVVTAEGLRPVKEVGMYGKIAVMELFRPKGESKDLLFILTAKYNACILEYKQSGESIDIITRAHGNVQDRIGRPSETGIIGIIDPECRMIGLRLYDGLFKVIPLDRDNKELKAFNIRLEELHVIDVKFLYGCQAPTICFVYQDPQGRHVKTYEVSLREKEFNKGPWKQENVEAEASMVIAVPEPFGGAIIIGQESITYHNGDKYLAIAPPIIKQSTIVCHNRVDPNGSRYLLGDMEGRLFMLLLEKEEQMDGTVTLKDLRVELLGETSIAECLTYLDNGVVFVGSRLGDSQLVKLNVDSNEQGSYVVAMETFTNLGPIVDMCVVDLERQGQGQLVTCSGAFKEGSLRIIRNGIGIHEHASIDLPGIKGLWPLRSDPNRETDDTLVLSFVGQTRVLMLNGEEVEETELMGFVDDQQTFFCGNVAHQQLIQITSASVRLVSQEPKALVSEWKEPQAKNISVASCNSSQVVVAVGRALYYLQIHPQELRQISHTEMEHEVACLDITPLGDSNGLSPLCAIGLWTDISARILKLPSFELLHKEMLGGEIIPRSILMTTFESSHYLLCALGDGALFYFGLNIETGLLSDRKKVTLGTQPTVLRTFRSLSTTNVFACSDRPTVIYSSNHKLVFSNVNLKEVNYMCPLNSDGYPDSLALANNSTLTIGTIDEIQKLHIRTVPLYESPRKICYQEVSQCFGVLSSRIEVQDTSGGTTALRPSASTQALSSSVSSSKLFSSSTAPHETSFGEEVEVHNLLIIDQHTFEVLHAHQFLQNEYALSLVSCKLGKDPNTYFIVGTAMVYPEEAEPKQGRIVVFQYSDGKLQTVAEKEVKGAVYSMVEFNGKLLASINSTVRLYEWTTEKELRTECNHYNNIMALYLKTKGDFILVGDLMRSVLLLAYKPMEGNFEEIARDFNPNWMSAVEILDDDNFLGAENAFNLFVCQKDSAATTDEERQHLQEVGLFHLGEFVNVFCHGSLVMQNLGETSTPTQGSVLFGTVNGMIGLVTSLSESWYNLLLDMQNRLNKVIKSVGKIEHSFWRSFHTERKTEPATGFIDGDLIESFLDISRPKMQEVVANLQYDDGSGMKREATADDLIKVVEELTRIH
UniProt Q8WXI9: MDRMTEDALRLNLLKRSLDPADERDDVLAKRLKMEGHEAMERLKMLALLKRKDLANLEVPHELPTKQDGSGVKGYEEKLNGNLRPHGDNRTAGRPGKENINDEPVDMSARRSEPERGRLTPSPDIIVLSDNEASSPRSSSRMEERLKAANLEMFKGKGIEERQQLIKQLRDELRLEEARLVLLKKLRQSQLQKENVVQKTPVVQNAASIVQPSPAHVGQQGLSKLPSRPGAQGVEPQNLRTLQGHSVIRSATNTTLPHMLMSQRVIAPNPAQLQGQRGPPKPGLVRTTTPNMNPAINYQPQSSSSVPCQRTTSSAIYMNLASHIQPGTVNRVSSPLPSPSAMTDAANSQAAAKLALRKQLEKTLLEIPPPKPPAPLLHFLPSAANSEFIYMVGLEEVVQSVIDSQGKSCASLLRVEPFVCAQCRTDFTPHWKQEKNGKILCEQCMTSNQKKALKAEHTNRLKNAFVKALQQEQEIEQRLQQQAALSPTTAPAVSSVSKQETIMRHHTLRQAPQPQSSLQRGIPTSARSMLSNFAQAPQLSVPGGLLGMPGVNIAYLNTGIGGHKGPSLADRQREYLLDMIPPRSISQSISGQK
UniProt Q13547: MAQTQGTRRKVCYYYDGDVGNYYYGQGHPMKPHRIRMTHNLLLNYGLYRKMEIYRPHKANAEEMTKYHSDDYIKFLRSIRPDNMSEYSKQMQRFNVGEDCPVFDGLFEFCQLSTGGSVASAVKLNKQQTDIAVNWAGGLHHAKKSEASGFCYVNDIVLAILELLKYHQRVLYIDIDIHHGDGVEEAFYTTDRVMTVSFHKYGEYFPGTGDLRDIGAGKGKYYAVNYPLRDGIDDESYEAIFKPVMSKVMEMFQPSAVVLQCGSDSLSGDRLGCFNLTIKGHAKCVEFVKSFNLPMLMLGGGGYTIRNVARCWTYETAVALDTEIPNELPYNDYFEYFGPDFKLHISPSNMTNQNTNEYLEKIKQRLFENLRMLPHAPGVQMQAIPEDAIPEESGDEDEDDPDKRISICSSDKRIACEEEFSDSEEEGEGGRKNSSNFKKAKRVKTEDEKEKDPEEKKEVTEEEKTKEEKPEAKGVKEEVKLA
UniProt Q09028: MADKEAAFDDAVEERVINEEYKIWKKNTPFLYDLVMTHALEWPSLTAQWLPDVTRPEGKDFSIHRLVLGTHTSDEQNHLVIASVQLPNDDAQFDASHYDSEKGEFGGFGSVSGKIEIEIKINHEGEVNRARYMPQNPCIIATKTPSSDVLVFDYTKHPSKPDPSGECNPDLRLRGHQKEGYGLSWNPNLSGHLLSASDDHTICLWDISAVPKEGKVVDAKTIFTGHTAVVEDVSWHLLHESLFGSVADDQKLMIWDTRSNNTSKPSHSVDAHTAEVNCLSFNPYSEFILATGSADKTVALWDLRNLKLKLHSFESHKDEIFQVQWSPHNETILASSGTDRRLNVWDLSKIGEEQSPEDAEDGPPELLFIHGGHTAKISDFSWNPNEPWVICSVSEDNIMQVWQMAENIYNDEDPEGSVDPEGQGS
UniProt O95863: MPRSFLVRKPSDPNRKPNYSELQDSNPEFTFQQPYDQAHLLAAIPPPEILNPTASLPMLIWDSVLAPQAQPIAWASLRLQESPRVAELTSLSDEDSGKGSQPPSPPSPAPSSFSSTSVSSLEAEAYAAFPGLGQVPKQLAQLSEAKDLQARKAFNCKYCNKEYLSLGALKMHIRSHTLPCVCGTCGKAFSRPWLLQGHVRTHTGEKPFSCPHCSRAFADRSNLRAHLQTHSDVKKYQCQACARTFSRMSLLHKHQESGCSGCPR

B1: OGT, endogenous (protein, UniProt O15294 1-1046)
chain: MASSVGNVADSTEPTKRMLSFQGLAELAHREYQAGDFEAAERHCMQLWRQEPDNTGVLLLLSSIHFQCRRLDRSAHFSTLAIKQNPLLAEAYSNLGNVYKERGQLQEAIEHYRHALRLKPDFIDGYINLAAALVAAGDMEGAVQAYVSALQYNPDLYCVRSDLGNLLKALGRLEEAKACYLKAIETQPNFAVAWSNLGCVFNAQGEIWLAIHHFEKAVTLDPNFLDAYINLGNVLKEARIFDRAVAAYLRALSLSPNHAVVHGNLACVYYEQGLIDLAIDTYRRAIELQPHFPDAYCNLANALKEKGSVAEAEDCYNTALRLCPTHADSLNNLANIKREQGNIEEAVRLYRKALEVFPEFAAAHSNLASVLQQQGKLQEALMHYKEAIRISPTFADAYSNMGNTLKEMQDVQGALQCYTRAIQINPAFADAHSNLASIHKDSGNIPEAIASYRTALKLKPDFPDAYCNLAHCLQIVCDWTDYDERMKKLVSIVADQLEKNRLPSVHPHHSMLYPLSHGFRKAIAERHGNLCLDKINVLHKPPYEHPKDLKLSDGRLRVGYVSSDFGNHPTSHLMQSIPGMHNPDKFEVFCYALSPDDGTNFRVKVMAEANHFIDLSQIPCNGKAADRIHQDGIHILVNMNGYTKGARNELFALRPAPIQAMWLGYPGTSGALFMDYIITDQETSPAEVAEQYSEKLAYMPHTFFIGDHANMFPHLKKKAVIDFKSNGHIYDNRIVLNGIDLKAFLDSLPDVKIVKMKCPDGGDNADSSNTALNMPVIPMNTIAEAVIEMINRGQIQITINGFSISNGLATTQINNKAATGEEVPRTIIVTTRSQYGLPEDAIVYCNFNQLYKIDPSTLQMWANILKRVPNSVLWLLRFPAVGEPNIQQYAQNMGLPQNRIIFSPVAPKEEHVRRGQLADVCLDTPLCNGHTTGMDVLWAGTPMVTMPGETLASRVAASQLTCLGCLELIAKNRQEYEDIAVKLGTDLEYLKKVRGKVWKQRISSPLFNTKQYTMELERLYLQMWEHYAAGNKPDHMIKPVEVTESA

Target: HA-tagged PRMT5 (UniProt O14744)
Assay: affinity purification with mass spectrometry; lysate of HeLa cells stably expressing HA-PRMT5 on anti-HA affinity column; washed with BC500 buffer (50 mM Tris, 2 mM EDTA, 500 mM KCl, 10% glycerol); eluted with HA peptide; SDS-PAGE, silver stain, LC-MS/MS

| Molecule | binding |
| --- | --- |
| DDB1, endogenous (from UniProt Q16531 1-1140) | binds |
| GATAD2B, endogenous (from UniProt Q8WXI9 1-593) | binds |
| HDAC1, endogenous (from UniProt Q13547 1-482) | binds |
| RbAp48, endogenous (from UniProt Q09028 1-425) | binds |
| Snail, endogenous (from UniProt O95863 1-264) | binds |
| B1 | binds |

No constants are given. Whether binding was seen depends on the method and setting. In cells and extracts the contact can be indirect. These calls come from enrichment with a bait or labelling near it, and not all partners need be listed.
